The target of the assay is T1, leucine-rich repeat containing 19 (LRRC19) protein (UniProt Q9H756).
T1 sequence (chain, NT647 fluorescence dye (in the MST experiments only)): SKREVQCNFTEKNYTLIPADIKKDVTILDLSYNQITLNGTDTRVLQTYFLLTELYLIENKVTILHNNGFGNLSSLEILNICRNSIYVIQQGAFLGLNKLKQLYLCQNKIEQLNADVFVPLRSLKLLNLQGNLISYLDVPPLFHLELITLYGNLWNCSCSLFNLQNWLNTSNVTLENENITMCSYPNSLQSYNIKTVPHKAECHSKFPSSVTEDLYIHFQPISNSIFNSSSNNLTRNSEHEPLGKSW
Kind of assay: MST; Monolith NT.115; LRRC19 labelled with NT647 dye; DVF in MST buffer (50 mM Tris-HCl pH 7.4, 150 mM NaCl, 10 mM MgCl2); both purified.

These are yes or no findings as the source states them, for the method shown. Binding can be weak; no strength is given.

Regarding Desulfovibrio vulgaris flagellin, the binding entry is “binds”.

The record behind these values is PMC10763354.
